Assay results from PubChem BioAssay AID504834 (National Center for Advancing Translational Sciences (NCATS), 2011).
Hit rate of the full screen: of about 320,000 compounds, about 22,000 (6.9%) were called active. The inconclusive results got no clear call from the source; some entries with a clear call stand among them for comparison. Calls come from the whole dose curve; as a rule, active = well fitted inhibition curve with a large enough effect; inconclusive = small, poorly fitted or top-dose-only effect, or another doubt; inactive = no such curve, though single readings can be large or run the other way. A potency beside an inconclusive call is a rough fit, not a confirmed value.

Experiment: Primary qHTS for delayed death inhibitors of the malarial parasite plastid, 96 hour incubation
Conditions: P. falciparum luciferase reporter growth; series mostly up to 28.7 µM; activity change, negative = inhibition: at the top concentration
Outline: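 Delayed-death screen, second-generation endpoint: infected erythrocytes, 2% hematocrit, 0.05% parasitemia final; 96 hours at 37 C, 5% CO2; luciferase detection reagent; luminescence decrease equals reduced growth.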
% is set by controls: 0 for no effect and ±100 for the full control effect; potency is the fitted concentration of half-maximal effect.

| Compound | activity change, negative = inhibition | Potency |
| --- | --- | --- |
| CC(C)Oc1cccc(C(=O)C2CCCN(Cc3cccn3-c3ccccn3)C2)c1 (stereo not given) | inactive: 27.3% | – |
| Nc1c(N2CCCCC2)c2ccccc2oc1=O | – | inconclusive: 7.38 µM [inhibitor, partial curve, poor fit] |
| Cc1ccc(-c2nc3ccccn3c2C=O)cc1 | – | inconclusive: 9.28 µM [inhibitor, partial curve] |
| Cc1no[n+]([O-])c1COc1ccc(/C=N/n2nnnc2N)cc1 | – | active: 11.7 µM |
| CN1CCc2nc3sc(C(=O)NC(C)(C)C)c(N)c3cc2C1 | – | inconclusive: 18.5 µM [inhibitor, single point] |
| CN(CC(=O)Nc1ccc(F)cc1)C(=O)CN1C(=O)NC2(CCCc3ccccc32)C1=O (stereo not given) | – | inconclusive: 18.5 µM [inhibitor, single point] |
| COc1ccc(OC)c(N=c2oc3cc(O)ccc3cc2C(N)=O)c1 | – | active: 13.1 µM |
| COc1ccc(N2C(=O)C(CC(=O)Nc3ccccc3)N(Cc3ccccn3)C2=S)cc1 (stereo not given) | inactive: -13.5% | – |
| Clc1ccc(C2=NCCn3nc4ccccc4c32)cc1 | – | inconclusive: 6.57 µM [inhibitor, partial curve] |
| Cc1ccc(CN(C)C(=O)C2CCC(=O)N(C3CCCCCC3)C2)cc1 (stereo not given) | inactive: -21.6% | – |
| CN(C)c1ccc(/C=N/NC(=O)c2ccc(CN3CCOCC3)cc2)cc1Br | – | inconclusive: 18.5 µM [inhibitor, single point] |
| O=C(c1nnc(-c2ccccc2)o1)C1CC1 | inactive: 33.8% | – |
| CCCCNC(=O)[C@H]1C[C@H]1[C@@H](O)[C@H](CO)NC(=O)[C@H](COCc1ccccc1)NC(=O)OC(C)(C)C | inactive: 34.1% | – |
| CCOc1ccc(CC2c3cc(OCC)c(OCC)cc3CCN2C(=O)CN2CCN(C)CC2)cc1OCC (stereo not given) | – | inconclusive: 11.7 µM [inhibitor, single point] |
| COc1ccc(NC(=O)CSc2nc3ccccc3c(=O)n2C)cc1 | – | active: 1.85 µM |
| CCn1c2ccccc2c2cc(NC(=O)CCCN3C(=O)CCC3=O)ccc21 | – | inconclusive: 18.5 µM [inhibitor, single point] |
| O=C1CSC(=Nc2ccc(F)cc2)N1 | – | inconclusive: 18.5 µM [inhibitor, single point] |
| COc1cc(/C=C(\NC(=O)c2ccccc2)C(=O)NC(C(=O)O)c2ccccc2)cc(OC)c1OC (stereo not given) | inactive: -23.4% | – |
| CCOC(=O)C(CC)n1cnc2c(oc3ccccc32)c1=O (stereo not given) | – | inconclusive: 0.147 µM [inhibitor, full curve, poor fit] |
| COCC1CCCCN1Cc1cn[nH]c1-c1ccc(OC)cc1OC (stereo not given) | – | inconclusive: 18.5 µM [inhibitor, single point] |

Ordered by SMILES length (low to high): part of the list above

| Compound | activity change, negative = inhibition | Potency |
| --- | --- | --- |
| Nc1c(N2CCCCC2)c2ccccc2oc1=O | – | inconclusive: 7.38 µM [inhibitor, partial curve, poor fit] |
| CN1CCc2nc3sc(C(=O)NC(C)(C)C)c(N)c3cc2C1 | – | inconclusive: 18.5 µM [inhibitor, single point] |
| CN(C)c1ccc(/C=N/NC(=O)c2ccc(CN3CCOCC3)cc2)cc1Br | – | inconclusive: 18.5 µM [inhibitor, single point] |
